Target: T1, human plasmin (Homo sapiens, UniProt P00747)
T1 construct: which cleave a single-chain plasminogen molecule at the Arg^560 -Val^561 peptide bond, producing active plasmin; purchased Talecris, Inc. (Research Triangle Park, North Carolina)
Assay: Plasmin precipitation study in buffer solutions (PBS, pH of about 7.4)
Type: physicochemical
Conditions: single additive, plasmin 1 mg/ml, observed within 2 hours
Method: This acidified, lyophilized plasmin was reconstituted with 0.9% (by weight) NaCl solution to a concentration of 10 mg/ml. […] Combinations of ε-aminocaproic acid and gelatin or glycerin were also tested. The concentration of plasmin in the additive-containing buffer was 1 mg/ml.

Protein sequences, listed by entry. Tags and fused reporters are not part of them. Residues count along the entry.
UniProt P00747, 97-580 limits assumed: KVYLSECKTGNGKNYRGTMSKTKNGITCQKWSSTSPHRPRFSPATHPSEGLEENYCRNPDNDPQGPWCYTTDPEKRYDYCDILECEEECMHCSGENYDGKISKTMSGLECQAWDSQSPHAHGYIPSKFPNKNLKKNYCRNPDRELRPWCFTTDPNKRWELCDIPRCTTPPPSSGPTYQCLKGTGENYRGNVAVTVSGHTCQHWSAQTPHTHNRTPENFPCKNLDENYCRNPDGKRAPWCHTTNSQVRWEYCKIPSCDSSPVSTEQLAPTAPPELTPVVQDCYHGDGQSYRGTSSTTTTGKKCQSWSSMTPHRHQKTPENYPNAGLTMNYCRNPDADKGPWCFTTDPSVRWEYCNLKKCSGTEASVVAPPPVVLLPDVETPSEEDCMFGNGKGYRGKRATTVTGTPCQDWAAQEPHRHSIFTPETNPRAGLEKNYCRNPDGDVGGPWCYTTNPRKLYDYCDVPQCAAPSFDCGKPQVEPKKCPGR
UniProt P00747, 581-810 limits assumed: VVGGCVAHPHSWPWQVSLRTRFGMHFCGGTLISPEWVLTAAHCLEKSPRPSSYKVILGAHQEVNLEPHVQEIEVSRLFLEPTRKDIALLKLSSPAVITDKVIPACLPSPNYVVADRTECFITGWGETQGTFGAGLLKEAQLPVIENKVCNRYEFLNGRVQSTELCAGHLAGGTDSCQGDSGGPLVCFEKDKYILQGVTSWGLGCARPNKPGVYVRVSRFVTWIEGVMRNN

Minimum Concentration of Additive Required to Prevent Visually Observed Plasmin Precipitation: 50 mM
SMILES: Cl.NCCC[C@H](N)C(=O)O [L-ornithine hydrochloride]
